Experimental data reported in patent publication US5519000A (Centecor, Inc., priority 1994, dated 1996).

Experiment: general procedure: Boc solid-phase peptide synthesis; 4-Methyl benzhydrylamine resin
Details: whole synthesis

Substance | crude mass (scale 0.5 mmol) [g] | crude mass (scale 0.51 mmol) [g]
Acetyl-aspartyl-isoleucyl-leucyl-leucyl-threonyl-glutaminyl-seryl-prolyl-alanyl-isoleucyl-leucyl-seryl-valyl-seryl-prolyl-glycyl-glutamyl-arginyl-valyl-seryl-phenylalanyl-serine-amide | 1.06 | –
Acetyl-isoleucyl-asparaginyl-threonyl-valyl-glutamyl-seryl-glutamyl-aspartyl-isoleucyl-alanyl-aspartyl-tyrosyl-tyrosyl-cysteinyl-glutaminyl-glutaminyl-seryl-histidyl-seryl-tryptophan-amide | 1.1 | –
Acetyl-threonyl-aspartyl-leucyl-arginyl-threonyl-glutamyl-aspartyl-threonyl-glycyl-valyl-tyrosyltyrosyl-cysteinyl-seryl-arginyl-asparaginyl-tyrosyl-tyrosyl-glycyl-seryl-threonyl-tyrosine-amide | 1.07 | –
Acetyl-tyrosyl-alanyl-glutamyl-seryl-valyl-lysyl-glycyl-arginyl-phenylalanyl-threonyl-isoleucyl-seryl-arginyl-aspartyl-aspartyl-seryl-lysyl-seryl-alanyl-valyl-tyrosyl-leucine-amide | 1.220 | –
Acetyl-tyrosyl-tyrosyl-seryl-glutaminyl-glutaminyl-seryl-histidyl-seryl-tryptophyl-prolyl-phenylalanyl-threonyl-phenylalanine-amide | 0.592 | –
Arginyl-glutaminyl-seryl-prolyl-glutamyl-lysyl-glycyl-leucyl-glutamyl-tryptophyl-valyl-alanyl-glutamyl-isoleucyl-arginyl-seryl-lysyl-seryl-isoleucine- amide | – | 0.56
PEPTIDE1{[ac].F.S.N.H.W.M.N.W.V.R.[am]}$$$$V2.0 | 1.03 | –
PEPTIDE1{[ac].L.I.K.Y.A.S.Q.S.M.S.G.I.[am]}$$$$V2.0 | 0.61 | –

Some peptides are written in HELM: one residue between dots, names in brackets for other building blocks, links after the first $.
